Laboratory results taken from the supplement of paper PMC10735217.
Counter-ions that a name gives are not always drawn. The list shows a part of the results. Single values are uncertain here, since repeats match poorly.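 The human kidney-derived cells carry a stably integrated construct of eight TEAD-binding elements driving luciferase, read by luminescence in a drug-repurposing library screen. A compound counts as a hit when its signal is more than five robust Z scores above the plate mean.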

Tested on: HEK293A TEAD-LUC reporter
Assay: TEAD-luciferase reporter activity (YAP activation), robust Z score vs plate; higher = stronger YAP/TEAD activation
Conditions: 24 h

| SMILES | TEAD-luciferase reporter activity (compound concentration: 2 uM) | TEAD-luciferase reporter activity (compound concentration: 200 nM) | TEAD-luciferase reporter activity (compound concentration: 10 uM) |
| --- | --- | --- | --- |
| C[C@@H]1C[C@H]2[C@@H]3CCC4=CC(=O)C=C[C@]4(C)[C@@]3(Cl)[C@@H](O)C[C@]2(C)[C@@]1(OC(=O)c1ccco1)C(=O)CCl [mometasone furoate stent] | inactive: -0.0667 | – | – |
| O=C(C1CC1)N1CCC(C(=O)N2CCC(c3ccccc3)CC2)CC1 | – | inactive: 1.38 | inactive: -0.442 |
| CCCC(=O)NCC(=O)N1CCCC1(C)C | inactive: -0.0368 | inactive: -2.61 | inactive: -1.84 |
| CNC(=O)[C@H]1O[C@@H](n2cnc3c(NCc4cccc(I)c4)nc(Cl)nc32)[C@H](O)[C@@H]1O | inactive: -0.897 | inactive: -0.765 | inactive: -0.373 |
| Nc1nc(F)nc2c1ncn2C1OC(CO)C(O)C1O (stereo not drawn) | inactive: -1.2 | inactive: -1.53 | inactive: -0.545 |
| CC[C@H]1OC(=O)[C@H](C)[C@@H](O[C@H]2C[C@@](C)(OC)[C@@H](O)[C@H](C)O2)[C@H](C)[C@@H](O[C@@H]2O[C@H](C)C[C@H](N(C)C)[C@H]2O)[C@](C)(OC)C[C@@H](C)C(=O)[C@H](C)[C@@H](O)[C@]1(C)O | – | inactive: -0.755 | inactive: -0.428 |
| CC[C@H]1OC(=O)[C@H](C)[C@@H](O[C@H]2C[C@@](C)(OC)[C@@H](O)[C@H](C)O2)[C@H](C)[C@@H](O[C@@H]2O[C@H](C)C[C@H](N(C)C)[C@H]2O)[C@](C)(OC)C[C@@H](C)C(=O)[C@H](C)[C@@H](O)[C@]1(C)O [Clarithromycin] | inactive: -1.23 | – | – |
| CC(=O)NC(=O)c1ccccc1O | inactive: -0.836 | inactive: -0.276 | inactive: -0.0611 |
| Cc1ccc(S(=O)(=O)Nc2cc(C(=O)NC(C)(C)C)ccc2Oc2cc(F)c(CC(=O)O)cc2Cl)cc1 | inactive: -1.56 | inactive: -0.141 | inactive: -0.941 |
| O=[N+]([O-])/C=C(\NC1CCCCC1)NS(=O)(=O)c1cnccc1NC1CCCCCC1 | inactive: 0.119 | inactive: -1.45 | inactive: 1.88 |
| COc1ccc(Cl)cc1C(=O)N1CCN(c2cccc(Cl)c2)CC1 | inactive: -0.302 | active: 5.06 | inactive: 1.41 |
| CSc1ccc(-c2nn(Cc3ccccc3)c(=O)cc2-c2ccc(Cl)cc2)cc1 | inactive: -1.1 | inactive: -1.58 | inactive: 0.422 |
| C[C@@H](CN(c1ccccc1)S(=O)(=O)Cc1ccccc1)N1CCC(NC(=O)Cc2ccc(C#N)cc2)CC1 | inactive: -1.12 | inactive: 0.236 | inactive: 1.3 |
| N#Cc1ccc(C(c2ccc(C#N)cc2)n2cncn2)cc1 | – | inactive: 0.353 | inactive: -0.561 |
| N#Cc1ccc(C(c2ccc(C#N)cc2)n2cncn2)cc1 [letrozole] | inactive: -1.08 | – | – |
| O=C(O)Cc1cccc(-c2cc(CCCCCCc3ccc(O[C@H]4O[C@H](CO)[C@@H](O)[C@H](O)[C@@H]4O)c(-c4cccc(CC(=O)O)c4)c3)ccc2O[C@H]2O[C@H](CO)[C@@H](O)[C@H](O)[C@@H]2O)c1 [bimosiamose] | inactive: -0.457 | inactive: -1.46 | inactive: 0.721 |
| CSc1ncnc2c1ncn2[C@@H]1O[C@H](CO)[C@@H](O)[C@H]1O | inactive: -1.8 | inactive: -1.22 | inactive: -1.92 |

A second format for some results above.
SMILES	TEAD-luciferase reporter activity (compound concentration: 2 uM)	TEAD-luciferase reporter activity (compound concentration: 200 nM)	TEAD-luciferase reporter activity (compound concentration: 10 uM)
N#Cc1ccc(C(c2ccc(C#N)cc2)n2cncn2)cc1 [letrozole]	inactive: -1.08	–	–
O=C(O)Cc1cccc(-c2cc(CCCCCCc3ccc(O[C@H]4O[C@H](CO)[C@@H](O)[C@H](O)[C@@H]4O)c(-c4cccc(CC(=O)O)c4)c3)ccc2O[C@H]2O[C@H](CO)[C@@H](O)[C@H](O)[C@@H]2O)c1 [bimosiamose]	inactive: -0.457	inactive: -1.46	inactive: 0.721

(next part)

| SMILES | TEAD-luciferase reporter activity (compound concentration: 2 uM) | TEAD-luciferase reporter activity (compound concentration: 200 nM) | TEAD-luciferase reporter activity (compound concentration: 10 uM) |
| --- | --- | --- | --- |
| CCN(CCCN(C)c1nc(-n2ccnc2)ns1)Cc1ccc2c(c1)OCO2 | inactive: -1.16 | inactive: -0.863 | inactive: 0.888 |
| O=S(c1cc(Cl)cc(Cl)c1O)c1cc(Cl)cc(Cl)c1O [Bithionol sulfoxide] | – | inactive: -0.869 | inactive: 0.0813 |
| O=S(c1cc(Cl)cc(Cl)c1O)c1cc(Cl)cc(Cl)c1O | inactive: -1.79 | – | – |
| CC[C@H](C)[C@H](N)C(=O)N[C@@H](CCC(=O)O)C(=O)N[C@@H](Cc1c[nH]c2ccccc12)C(=O)O [Neogen] | inactive: 0.957 | inactive: -0.522 | inactive: 0.132 |
| C/C(=C\c1ccc(Cc2cccnc2)cc1)C(=O)O | inactive: -0.559 | inactive: 0.0958 | inactive: -1.2 |
| O=C(O)CCNC(=O)[C@H](Cc1ccccc1)N[C@@H](Cc1ccccc1)C(=O)O | inactive: -0.334 | inactive: 0.0131 | inactive: -1.22 |
| CC(=O)N[C@@H](CCCNC(=N)N)C(=O)N[C@H]1CSSC[C@@H](C(N)=O)NC(=O)[C@H](Cc2c[nH]c3ccccc23)NC(=O)[C@H](CCCNC(=N)N)NC(=O)[C@@H](Cc2ccccc2)NC(=O)[C@H](Cc2cnc[nH]2)NC(=O)[C@@H](C)NC1=O [Setmelanotide] | inactive: -0.12 | inactive: -0.877 | inactive: -0.466 |
| CC(=O)NC[C@H]1CC(c2ccc(-c3ccncc3)cc2)=NO1 | – | inactive: -0.709 | inactive: 1.02 |
| Nc1ccc(C#Cc2cnn3c(C(F)(F)F)cc(-c4ccc(C(F)(F)F)cc4)nc23)cn1 [Decoglurant] | inactive: -1.05 | inactive: -0.525 | inactive: 1.43 |
| Cc1cc(C)cc(-c2ccc(CN3CCCC(NC(=O)c4ccccc4Cl)C3)cc2)c1 (stereo not drawn) | – | inactive: -0.226 | inactive: 1.73 |
| Cc1nc2cc(NC(=O)c3ccc(Cl)cc3)ccc2n1C | inactive: -2.81 | inactive: 1.54 | inactive: -1 |
| CCOc1ccc(Cc2nccc3cc(OCC)c(OCC)cc23)cc1OCC | inactive: -2.3 | inactive: 0.621 | inactive: 0.864 |
| CCOc1ccc(Cc2nccc3cc(OCC)c(OCC)cc23)cc1OCC [Ethaverine] | inactive: 2.08 | – | – |
| C=C1C[C@H](N)[C@H](C(=O)O)C1 [Icofungipen] | inactive: -1.16 | inactive: -1.15 | inactive: 2.96 |
| COC(=O)[C@H](C/C=C/c1ccc(N(C)c2ncccn2)cc1)NC(=O)c1c(F)cccc1F | inactive: -0.544 | inactive: 0.963 | inactive: 0.888 |
| O=S(=O)([O-])[O-] [Zinc sulfate] | inactive: -0.791 | – | – |
| O=S(=O)([O-])[O-] [Copper(II) sulfate] | – | inactive: -1.19 | inactive: -0.81 |
